Some entries share one result that the patent states for a list of compounds.
Tested on: RPMI8226 multiple myeloma (MM) human cell lines
Assay: Cytotoxic effect of CBD, THC and combinations on RPMI8226 cells
Assay type: cell-based
Details: concentration of about 15 μM and more
Description: This example examines the cytotoxic effect of CBD alone, THC alone and combinations of both compounds. The cytotoxic effect of CBD, THC and their combinations in different ratios such as CBD: THC 1:1; CBD: THC 5:1 and CBD: THC 1:5 were evaluated on RPMI8226 multiple myeloma (MM) human cell lines. Reference is now made to FIG. 2 which presents a graph of RPMIS MM cell line survival (%) vs. concentration (μM).

| SMILES | survival of RPMIS MM cells |
| --- | --- |
| C=C(C)[C@@H]1CCC(C)=C[C@H]1c1c(O)cc(CCCCC)cc1O [CBD, cannabidiol] | higher than 70% |
| CCCCCc1cc(O)c2c(c1)OC(C)(C)[C@@H]1CCC(C)=C[C@@H]21 [THC, Tetrahydrocannabinol] | higher than 70% |

From patent US20180185324A1, “NOVEL CANNABINOID COMBINATION THERAPIES FOR MULTIPLE MYELOMA (MM)” (ONE WORLD CANNABIS LTD, priority 2015, published 2018)
